Consider 40 compounds from PubChem BioAssay AID493014 (National Center for Advancing Translational Sciences (NCATS), 2011).

Some of the results follow. Further columns of the screen follow, without active or inactive calls. The list favours compounds with an active or inconclusive main result. Potencies come from curve fits of mixed quality, noted in brackets.

The assay is described as follows: qHTS Assay to Find Inhibitors of Chronic Active B-Cell Receptor Signaling. As to conditions: ABC-DLBCL IkBa-CBG/CBR reporter, luminescence ratio (green luciferase fused to IkBa over red control in TMD8 lymphoma cells), 4 h. Summed up:
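TMD8 human ABC-DLBCL cells with doxycycline-inducible IκBα–green luciferase fusion and unfused red luciferase, in 0.5% FBS medium; compounds up to 46 uM, 4 h at 37C. Green/red luminescence ratio, filter-overlap corrected, fitted to concentration-response curves.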

Setting [1] is: measured here: CBR red luminescence, cell number.
Setting [2] is: measured here: IkBa-CBG green luminescence.

With `O=c1c2cc3c(nc2[nH]c(=S)n1-c1ccccc1)CCCC3`, the AC50 under setting [1] is 11.2 µM [rising, partial curve].

Consider `CCOc1ccc(CCNC(=O)C2CCN(c3nn4c(=O)cc(C)nc4s3)CC2)cc1OCC`, for which, under setting [1], the AC50 was 12.6 µM [rising, partial curve].

With `COc1ccc(C(CNC(=O)c2sccc2C)N2CCOCC2)cc1` (configuration not stated), the AC50 under setting [1] was 3.26 µM [falling, partial curve].

As to `COc1ccc2c(CN(C)c3ccccc3)cc(=O)oc2c1`, the AC50 under setting [2] is 23.1 µM [falling, single point].

For the compound `CC1(C)Cc2c(cnn2-c2ccccc2)C(=O)/C1=N\NC(=O)c1ccccc1O`, under setting [1], the half-maximal activity concentration (AC50) was 20.6 µM [falling, single point].

Consider `CCC(=O)N1c2ccc(S(=O)(=O)N3CCN(c4ccc([N+](=O)[O-])cc4)CC3)cc2CC1C` (configuration not stated), for which the concentration at half-maximal activity (AC50) under setting [1] was 0.355 µM [falling, full curve, poor fit].

As to `CC1(C)CC(=O)C2=C(C1)NC1=C(C(=O)c3ccccc31)C2c1ccccc1` (configuration not stated), the AC50 under setting [1] is 18.4 µM [falling, single point].

Regarding `C=CC[C@H](CC(=O)N(CCO)Cc1ccccc1)C(=O)N[C@@H](COC(=O)[C@@H](CC=C)Cc1ccc(F)cc1)Cc1ccccc1`, under setting [1], the AC50 was 25.9 µM [falling, partial curve, poor fit].

Consider `C#CCOC(=O)C(NC(=O)c1ccccc1)=C1CCCCC1`, for which, under setting [1], the AC50 is 0.164 µM [rising, full curve, poor fit].

As to `CCC(C)[C@H](NC(=O)N1CCn2c1nc1ccccc12)C(=O)NCCc1ccc(OC)c(OC)c1` (some centres not stated), the AC50 under setting [1] is 7.94 µM [falling, partial curve, poor fit].

In the case of `O=C(CC(Nc1ccc(F)cc1)C(=O)OCC(=O)c1cccs1)c1ccccc1` (configuration not stated), the concentration at half-maximal activity (AC50) under setting [1] was 1.46 µM [rising, partial curve, poor fit].

As for `CC(=O)c1ccccc1NC(=O)CSc1nnc(Cc2csc(C)n2)o1`, under setting [1], the AC50 was 32.6 µM [falling, single point].

On to `COc1ccc(-c2cn3cc(C(F)(F)F)cc(Cl)c3n2)cc1`, for which, under setting [1], the concentration at half-maximal activity (AC50) is 1 µM [rising, partial curve, poor fit].

`O=C(NCc1ccc2c(c1)OCO2)c1ccc2c(c1)OCCO2`: the AC50 under setting [1] is 12.6 µM [falling, partial curve, poor fit].

Consider `O=C(O)c1ccc(CNC(=O)c2ccc3c(c2)OCCO3)cc1`, for which the half-maximal activity concentration (AC50) under setting [1] is 35.5 µM [falling, single point].

`Cc1cccc(N2CCN(CCCNC(=O)C3CCCN(c4ncnc5c4nc4n5CCCCC4)C3)CC2C)c1` (configuration not stated): the half-maximal activity concentration (AC50) under setting [1] was 35.5 µM [falling, single point].

For `CCN(C1CCS(=O)(=O)C1)S(=O)(=O)c1cccc([N+](=O)[O-])c1` (configuration not stated), the AC50 is 22.4 µM [falling, partial curve, poor fit] under setting [1] and 35.5 µM [rising, single point] under setting [2].

`O=C(COc1cccnc1[N+](=O)[O-])NCCc1ccc(F)cc1`: under setting [1], the AC50 was 20 µM [rising, single point].

For the compound `O=C(Nc1ccc(N2CCCC2)cc1)c1cc2ccccc2o1`, the AC50 under setting [1] was 0.708 µM [falling, full curve, poor fit].

For `COC(=O)C(CC(=O)c1ccc(Br)cc1)n1ccnc1` (configuration not stated), the concentration at half-maximal activity (AC50) by setting is: under setting [1], 29.1 µM [falling, single point]; under setting [2], 5.8 µM [falling, partial curve, poor fit].

On to `O=C(N/N=C/c1ccc2c(c1)OCO2)C(O)c1ccccc1` (configuration not stated), for which the AC50 under setting [1] is 18.4 µM [falling, partial curve].

As to `CCSC1=C(C#N)C(c2cccc(Br)c2)CC(=O)N1` (configuration not stated), the AC50 under setting [1] is 25.9 µM [falling, single point].

As for `Fc1ccc(-c2nc3nc4ccccc4nc3n2Cc2ccco2)cc1`, under setting [1], the concentration at half-maximal activity (AC50) was 17.8 µM [falling, single point].

On to `C#CCCCCCCCCC(=O)NCCCC`, for which the half-maximal activity concentration (AC50) under setting [1] is 1.26 µM [rising, partial curve, poor fit].

Consider `CC(=O)c1c(CC(=O)O)[nH]n(-c2nc3ccccc3s2)c1=O`, for which, under setting [1], the half-maximal activity concentration (AC50) is 8.2 µM [falling, partial curve].

Turning to `O=C(CNC(=O)C1CCCCC1)Nc1ccc(F)c(Cl)c1`, under setting [1], the AC50 was 17.8 µM [falling, single point].

Consider `COc1ccccc1N(CC(=O)NC1CCCC1)C(=O)c1csnn1`, for which, under setting [1], the AC50 was 16.4 µM [falling, partial curve, poor fit].

Turning to `CC(Cc1ccccc1)NC(=O)c1cc2ccccc2o1` (configuration not stated), under setting [1], the AC50 was 11.2 µM [falling, single point].

For the compound `COc1cccc(/C=N\Nc2nncc(-c3ccccc3)n2)c1`, under setting [1], the AC50 is 11.2 µM [falling, partial curve, poor fit].

With `Cc1csc(NC(=O)c2cc3c(s2)CCCCC3)n1`, the AC50 under setting [1] is 9.2 µM [falling, partial curve, poor fit].

`CSc1nsc(SCC(=O)Nc2ccc(C(C)=O)cc2)n1`: the AC50 under setting [1] was 18.4 µM [rising, partial curve, poor fit].

On to `CC(=O)Nc1ccc(OCc2cnc(Cl)s2)cc1`, for which the AC50 under setting [1] was 31.6 µM [rising, partial curve, poor fit].

`COc1ccc(C(NC(=O)/C=C\c2ccco2)c2ccc(OC)c(OC)c2)cc1` (configuration not stated): under setting [1], the concentration at half-maximal activity (AC50) was 6.31 µM [rising, partial curve, poor fit].

For `COc1ccccc1OCCn1c(=S)[nH]c2ccccc21`, under setting [1], the concentration at half-maximal activity (AC50) was 17.8 µM [falling, partial curve, poor fit].

For `CCN(C(=O)c1cc2cc3ccc(C)cc3nc2o1)c1ccc(OC)cc1`, the concentration at half-maximal activity (AC50) under setting [1] was 11.6 µM [rising, partial curve].

`O=C(OCC(=O)N1CCc2ccccc2C1)c1ccc(O)cc1`: the half-maximal activity concentration (AC50) under setting [1] is 3.26 µM [falling, partial curve].

For `CN(C)CCNC(=O)c1ccc(COCC(F)(F)F)cc1`, the half-maximal activity concentration (AC50) under setting [1] was 14.6 µM [rising, single point].

Turning to `COc1cccc(-c2nn(C)c3sc(C(=O)NCc4ccccn4)cc23)c1`, the half-maximal activity concentration (AC50) under setting [1] is 16.4 µM [falling, partial curve, poor fit].

As for `O=C(Nc1cccc(NC(=O)c2ccccc2Cl)c1)c1ccc(F)cc1`, the AC50 under setting [1] was 35.5 µM [falling, single point].

With `CN(C)c1ccc(N=Cc2nc(-c3ccccc3)oc2OC(=O)c2ccccc2)cc1`, the AC50 under setting [1] is 2.59 µM [falling, full curve].
